Out of some 52,000 sequences screened, about 210 (0.4%) were called active.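 The calls were made as follows: active = gene whose silencing raises cell survival under the drug, median off-target-corrected z-score across its silencing RNAs 2 or more; inactive = the rest.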 The list shows a part of the results.

A short description of this experiment: Resistance to Poly (ADP-Ribose) Polymerase inhibitor: Gene Identification via Genome-wide siRNA Screen. The conditions noted are these: mouse BRCA2 R2336H ES cells, olaparib, CellTiter-Glo viability; stronger effect = higher value. The gist of the method:
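Genome-wide siRNA screen (3 siRNAs/gene, 20 nM) in mouse ES cells carrying hypomorphic BRCA2 R2336H; olaparib 500 nM added 48 h post-transfection, CellTiter-Glo viability 72 h later. Normalized to plate-median negative control; MAD z-scores, gene median, seed-adjusted.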
(ATP-based viability assays read luminescence as a measure of living cells.)
On to GGACAGGCUCUACCAGUAUTT against Syt15, for which the z-score was inactive: -0.755.
For the sequence GCCUGGUUUCUCCCUCAAATT against AW209059, the z-score is inactive: 0.0462.
With CCCUAUUAAUCUCAUUGUGTT against P2rx4 the figure was inactive: -0.185; with CGCGACUUCCACAAACCUGTT against LOC574530, inactive: 1.47.
With GCUGUCAGAGUGGUGAUAUTT against Zdhhc7 the figure was inactive: -0.134.
With “UUGUGGGCUUAUGGAUAUUTT against 9430025C20Rik”, the z-score was inactive: 0.899.
With GGCUAUUAGGUUUGAAAUCTT against Grsf1 the figure was inactive: 1.02.
Consider “GCUUAACAAUUUCUCCCGCTT against C230086A09Rik”, for which the z-score is inactive: 1.11.
With GCUGAAUUUAGAGAGCACATT against BC030183, the z-score is inactive: 0.812.
In the case of GGGUGUAAUAUCAAAAAAGTT against Atp7a, the z-score was inactive: -0.0244.
With GGCCAAGAAAAAAGAAAGATT against Slc22a2 the figure was inactive: -1.73.
In the case of GGUAUGUUUUCCUUAAGUGTT against Cdc42se1, the z-score was inactive: -0.0253.
For GGUGUUUGGCAAUCUCAAUTT against Oplah, the z-score is inactive: 0.666.
With GGGAGCUUUGGAAAUUUUATT against Zbtb3 the figure was inactive: 0.556.
With GCUCUUCUCUGUACGACAUTT against Bcas3 the figure was inactive: 1.51.
As to GGAACUAUCCAGUAGGUAGTT against Mill2, the z-score was inactive: 1.42.
For “GCCAAGAUGGUUAAAUACCTT against 6430502M16Rik”, the z-score is inactive: -0.129.
For GCUGGACAUCGACUUUGGATT against Prnd, the z-score was inactive: 0.801.
For the sequence GCUGAAGGAUCCCAUUAGATT against Cbx2, the z-score is inactive: 0.121.
With CCAUCACUGUCGCCUAUUGTT against Leng4 the figure was inactive: -2.03; with “GGUAGAAUGAUGUUCAAACTT against 2610028L19Rik”, inactive: -1.8; with GGAAUUCAAGAAAAGGAUCTT against Plvap, inactive: -0.304.
As to GGAGCUGUUUUCUGUGAAGTT against Mrps2, the z-score is inactive: -2.2.
As to CCGGACUUUAUAUGACAACTT against Cd80, the z-score was inactive: -0.0946.
With GCUAGUUGCAUUCUGUGCUTT against Rpl7l1, the z-score is inactive: 0.603.
Take GGAAGUUUCAGAAAACAUGTT against Nasp: the z-score was inactive: 1.28.
Turning to CCUGGAAAUAUCAAAUUUCTT against Olfr850, the z-score is inactive: 0.028.
With GCGAAAAUAUUUUCCGGGCTT against Itga2 the figure was inactive: 0.573; with GGAGAGAAGAAAAAGAAGGTT against Rrbp1, inactive: 0.803.
As for GCCAAACGAACAACAAAACTT against Chrm3, the figure is inactive: 0.589; as for “UUAUAGAAACGACAAGACUTT against 1110001A23Rik”, inactive: 2.02; as for “GGUUGCUACAUGGUUAAUUTT against 6530401C20Rik”, inactive: -0.286.
GGAGAAAGGUUUUGUUAUGTT against Gtf2h2: the z-score was inactive: 1.41.
With AUAUAACAGUGCCCAGCCUTT against Olfr885, the z-score was inactive: 0.61.
Regarding GGUCUUUCAUCUGACCAGCTT against Slc10a1, the z-score is inactive: -1.58.
In the case of GGAGAUGUUUACAUGUAUUTT against Oact1, the z-score was inactive: 0.637.
As for GGGAAUAGCAAAUAAAGCATT against Lztr1, the figure is inactive: -0.544; as for GGCUAUCCAAAUUUGAGUCTT against Fert2, inactive: 0.259.
With “GGUACAUUAACCCUAAAGATT against 4930550C14Rik” the figure was inactive: 0.206; with “GCGUGCAGUGUCGUGAAAGTT against D430018E03Rik”, inactive: -0.395.
With “GGAAUCGACAUUGAAUGUGTT against 0610039K22Rik” the figure was inactive: -0.267; with GCAGUACACUUCCAUAUGGTT against Prlr, inactive: 1.16.
Turning to GGAGGUGUUAGAUUUUGACTT against Asrgl1, the z-score was inactive: 0.861.
With “GCUCACCAGAAUUUGUGGATT against 1700008I05Rik” the figure was inactive: 0.154; with GGCAAAAAACUGAGAAGAATT against Zfp148, inactive: -1.15.
In the case of “GGGUCCUCCCUUUUAAGAGTT against 1700123L14Rik”, the z-score was inactive: 0.393.
Take GGUCGUCCCUCUUUAUGGGTT against Rnf5: the z-score was inactive: -0.158.
With CCCGAUCUAUUGCACAAAUTT against Nxt2, the z-score was inactive: -0.555.
As for GGAAAUGGAUUUCUUAUGGTT against Cutc, the figure is inactive: -1.12; as for GGAAACCACAUAGAAUAAUTT against Gm604, inactive: -0.318.
On to GGAUUCUCACCAAAUACUUTT against Oprd1, for which the z-score is inactive: -0.77.
With “GGAUGGUUUUCAUUUGCUUTT against 4732429D16Rik” the figure was inactive: 0.124; with GGAGAAACAAAAAAGGUGUTT against Srd5a2l, inactive: -0.00262.
On to CCUAGGUGUCACCAUGAACTT against Ssx9, for which the z-score is inactive: 0.765.
For the sequence GGGAAUCUUGUUAUAAGGGTT against V1re9, the z-score was inactive: 0.576.
With “GGGUUCAUAUGUUUUGGAUTT against C130050O18Rik” the figure was inactive: -0.172; with CCGUUAUCUCUUGAAACAUTT against Kitl, inactive: -0.982; with GGCAUGUCUAAUGAACUCATT against Acly, inactive: -0.898.
With CCCUACUAUUGACGAAAACTT against Hoxc12 the figure was inactive: -0.0238; with “CCUACUGAAACAAUCACACTT against E230031K19”, inactive: 0.272; with “CCACCUGAUGAGUUUACCGTT against 4930558O21Rik”, inactive: 1.05.
As for GGAAUGAGCAUGUUAAAUGTT against Maoa, the figure is inactive: -0.182; as for GGACCUCAAAAGCUAUUUUTT against Slco1a6, inactive: 0.232; as for “GCGAUAAGCAGAAUGGCAGTT against 8030462N17Rik”, inactive: 0.187.
With GGAAGUGCAAGUGACAAAGTT against Adat1, the z-score was inactive: 1.65.
Consider GGCAUACCGAAAGUUAGCCTT against Dnaja2, for which the z-score is inactive: 0.259.

The values are drawn from PubChem BioAssay AID1347423 (Functional Genomics Laboratory (NCATS/FGL), 2020).
